Experimental data from US9826740B2, “Synergistic fungicidal compositions and methods of use” (ZELAM LIMITED, priority 2010, dated 2017).
Entries after “also recorded” stand apart in the source; their conditions may differ. At least one compound was matched to its structure with a doubt left.

What was measured:
[1] = system: human and yeast CYP51 (lanosterol-14α-demethylase); conditions: cited from earlier work
[2] = cited from earlier work
[3] = system: Serpula lacrymans; experiment: Rot jar test of glueline treated Pinus radiata plywood (AWPC 2007); conditions: active ingredient alone as glueline fungicide, 62.5-500 gai/m3
Protocol: The end points used were EC90 or EC50, the concentration producing 90% or 50% inhibition of growth or weight loss resulting from fungal growth. EC values were calculated by regression analysis of dose response data using the GraphPad Prism software package (GraphPad Software, Inc., 5755 Oberlin Drive #110, San Diego, Calif. 92121, USA). EC90 values are expressed in ppm and EC50 values are expressed in gai/m^3.
Efficacy as a glueline fungicide was tested in plywood manufactured with phenol formaldehyde (PF), a typical resin used in engineered wood products. The wood type was Pinus radiata sapwood, which, like many softwoods, is rapidly degraded by decay organisms, if not protected. […]
In order to examine the interaction between triadimefon and cyproconazole in the glueline a synergy trial was performed using plywood manufactured with fungicide-supplemented PF resin and the rot jar method described above. Six glueline rates (expressed as gai/m^3) of triadimefon alone, cyproconazole alone, triadimefon+cyproconazole (10:1) and triadimefon+cyproconazole (6:1) were used to establish EC50 values by regression analysis. Synergy was determined by the Wadley method as described above using the EC50 values. […]

CC(C1CC1)C(O)(Cn1cncn1)c1ccc(Cl)cc1 (racemic) [Cyproconazole]
relative selectivity for the fungal enzyme (in words) ([1]; based on the IC50 ratio human/yeast): highly selective
ratio of IC50 values (human/yeast) against CYP51 ([1]; human CYP51 IC50 / yeast (Candida albicans) CYP51 IC50): 228
Henry [2]: 2.6 × 10^−4 P m^3 mo1^−1
dose response / control of the fungus (in words) [3]: partial inhibition; also recorded: only partially controlled
